Measurements reported in patent publication US6413953B1, “Pt(IV) antitumor agent” (AnorMED Inc., priority 1999, dated 2002).

Experiment: Combined solubility, activity comparison with Pt(II) analog
Details: mean over six cell lines; larger is more optimal

SMILES	mean ratio of (SolPt(IV)/SolPt(II)) over (IC50-Pt(IV)/IC50-Pt(II))
Cc1cccc[n+]1[Pt-2]([NH3+])([OH])([OH])([Cl])[Cl] [Compound B]	3.2
CC(=O)[O][Pt]([OH])([Cl])[O]C(C)=O.Cc1ccccn1.N [Compound C]	6.5
CC(=O)[O][Pt]([OH])([Cl])[O]C(C)=O.Cc1ccccn1.N [Compound E]	2.7
